These are yes or no findings as the source states them, for the method shown. In cells and extracts the contact can be indirect. For some assays here: A result given as binding can be weak or reduced; the word gives no strength. Tags and fused reporters may be left off the sequences shown.
B1: GFP-Rho3 (wild-type Rho3 fused to GFP) (protein, UniProt O13928 1-205)
chain: MSSCFGSKKKPIYRKIVILGDGAAGKTSLLNVFTKGYFPQVYEPTIFENYIHDIFVDGNSIELSLWDTAGQEEYDQLRSLSYSDTHVIMICFAVDSRDSLENVITKWLPEVSSNCPGVKLVLVALKCDLRGADEEQVDHSKIIDYEEGLAAAKKINAVRYLECSAKLNRGVNEAFTEAARVALAAQPRGTKDGADESHGTGCIIA
B2: GFP-Rho3G22V (GTP-locked variant of Rho3 fused to GFP) (protein, UniProt O13928 1-205)
chain: MSSCFGSKKKPIYRKIVILGDVAAGKTSLLNVFTKGYFPQVYEPTIFENYIHDIFVDGNSIELSLWDTAGQEEYDQLRSLSYSDTHVIMICFAVDSRDSLENVITKWLPEVSSNCPGVKLVLVALKCDLRGADEEQVDHSKIIDYEEGLAAAKKINAVRYLECSAKLNRGVNEAFTEAARVALAAQPRGTKDGADESHGTGCIIA
B3: GFP-Rho3T27N (GDP-locked variant of Rho3 fused to GFP) (protein, UniProt O13928 1-205)
chain: MSSCFGSKKKPIYRKIVILGDGAAGKNSLLNVFTKGYFPQVYEPTIFENYIHDIFVDGNSIELSLWDTAGQEEYDQLRSLSYSDTHVIMICFAVDSRDSLENVITKWLPEVSSNCPGVKLVLVALKCDLRGADEEQVDHSKIIDYEEGLAAAKKINAVRYLECSAKLNRGVNEAFTEAARVALAAQPRGTKDGADESHGTGCIIA
B4: GFP-Rho3E48V (effector domain mutant of Rho3 fused to GFP) (protein, UniProt O13928 1-205)
chain: MSSCFGSKKKPIYRKIVILGDGAAGKTSLLNVFTKGYFPQVYEPTIFVNYIHDIFVDGNSIELSLWDTAGQEEYDQLRSLSYSDTHVIMICFAVDSRDSLENVITKWLPEVSSNCPGVKLVLVALKCDLRGADEEQVDHSKIIDYEEGLAAAKKINAVRYLECSAKLNRGVNEAFTEAARVALAAQPRGTKDGADESHGTGCIIA
B5: Apm1 fused to GFP (subunit of the AP-1 complex) (protein, UniProt Q9HFE5 1-426)
chain: MASAIFVLNLKGKVIISRDYRADIPMSVVEKFLPLKSEVEEEQGFSTPCLTHEGINYIYIHHNDVYLLALSKMNSDAMEMLVFLRKMADVFIDYFKELQEESIRDNFVLVYELLDEIMDFGFPQTTETKILQEYITQTSNTVKKHAPPPIAMTNAISWRSEGIHYRKNEVFLDVIESVNLIAAADGTVIQSEILGKVRLKCYLSGMPELRLGLNDKVLFEAAGRTIKGNTVEMEDVKFHQCVRLARFENDRTISFIPPDGEFDLMSYRMSSNVRPLIWVECESIVHSGSRIEFMVKAKAQFKKRCIANNVQIIIPVPEDADSPRFQTSNGHVQYAPEQAAMVWNIKKFAGGKEFFMRAEMGLPSVKNEDIQVQKKRPVQLKFAIPYFTTSGIQVRYLKITEPKLNYHAMPWVRYVTQNGTEYSIRQ
B6: Apl2 fused to GFP (subunit of the AP-1 complex) (protein, UniProt O43079 1-683)
chain: MVPKLFQSSRFKAFKKSETSELQKGLVSQYAYERIDAVKRTIAAMTVGKDVSSLFPDVLKNLATRDITLKKLVYLYLINYAKTHPDLCILAVNTFVKDSEEYNPTLRALAIRTMGCIRVNKIIGYLADPLRKALKDEHPYVRKAAAVCVVKMYDLDREYCASNGFIEQLQALVSDPNPVVVANAVRSLAEIHDQDPEKGYFNVVYTMTDRLMVALSECNEWGRITILNSLARFRTSDIKEAEYVCERVVPQFQHANSGVVLSAVKVIMVHIPLFSSDFTDFLYKKMAPPLLTLLSTDSEIQYVALRNINLILQKRPSIFDVKTRVFFCKYNDPLYIKMEKLKIITMLACDENINETISELRAYVSEVELEFVKQTIKCLGDVALKVPSVINDCISIFLEIYELNISYMVQEVTVVMETVLRKYPQKIDLLLPYLSRVIEELGDPRARSSMAWILGEFSHVIPTSSKLLSEMISTMADEDLQIQLALLTAVVKLSLMNGKGNDEELVQKVLNYAINQSSNQDLRDRAFAYQRLLTPENVRKAQKIVCCEKPSVSYNNNLPEALLDALLCEITTLASVYHKLPESFIGQGKFGADAIQRRAVEELNIEEANVHEAIEKGANVENLLDLDFTDPGATSASDSPITSAQPQSGSNSAMDLFMAFEAPSTNNAEPVKARSATDDLLGL
B7: Apl4 fused to GFP (subunit of the AP-1 complex) (protein, UniProt Q9UU81 1-836)
chain: MSSLKSFIKAVRASKTTAEEHTTILKESAQIRKNIRQGSNDMRMRRKNVAKLLYLFLLGEPTHFGQIECLKLLSSSRFMDKRLGYLAAMLLLDENQEVLTLLTNSLQNDLKSRDKFIVGLALSAFGNVAGPELARDLSNDIAELCSNHHNYISKKAVLCALRVIQKEPDLESLYIEKTDELLHSKSHGVLMAALAFAISACKINPSLISRFESQADDLIYRIRQLSTSTYSSEHNIGNISDPFLQVKILQFLSILGQNNPKIYDKMSDLLAQVCTNTDSSRNAGNAILYQAVRTILDLNSDSSLRVLGVNILAKFLGNRDNNTRYVALNMLKLVVNSEENAVQRHRSTILACLNDVDSSIQSRALELSTFLVNEANVRFMVRELLSFLDNVSDELRGSTAQYITEVTNAFAPNKRWHFDTLLRVFKSAGNFVSESTLSTFLRLIASAPELHEYAVVKLYAALKEDVSQEALTLSAFWVIGEYGQMLLSPTMNFDDDQTLPHSVSESDIVDIIEEVFNSVEASRYIIVQYGLFALTKLSARLGSSSTASRIDKIIYSYKRNKNTEVQQRSVEFHLILNDSKLSKTILEPTPAPLPPPRTTPYQNAEQKLKANKHVEKRVQESNELLDLIGLTTPSVAEPLETPVDEMTQSPQSSLSRAPSTSKKSHFEDILGLFASPAPSAQPVDSLASSFASLDFNASASQPSNNLSLLSSIPSTSKSYPPIVVFDKHDVTLTLVPSKEESTKTAVIEAKFKNKNPMTRVEKIHLEVAVPKSQKLKIQPLRTTSMEPGGETSQTLRVHGPSGSQVKLRLRISVVRQGGSNTLDQVDFGKLPSDLLQ
B8: Aps1 fused to GFP (subunit of the AP-1 complex) (protein, UniProt Q9P7N2 1-162)
chain: MSIKFFLLVSRQGKVRLAKWFNTLSIKERAKIIRDVSSLVITRKPKMCNFVEYKGEKIVYRRYASLFFVCGIEQDDNELIILEVIHKFVECLDKYFGNVCELDLIFNFEKAYYVMEELLLAGELQESSKTNVLSAVLAGDAESEADAQQDSLQKLVGSVKKR
B9: GFP-Rho2 (GFP-fused Rho2) (protein, UniProt Q10133 1-200)
chain: MLQSQPIRRKLVVVGDGACGKTSLLSVFTLGYFPTEYVPTVFENYVSDCRVDGKSVQLALWDTAGQEEYERLRPMSYAKAHIILVGFAIDSPDSLENVSTKWIEEINTLCPNVPFILVGMKADLRSDPVAIEEMRRRNQNFVKSQQAELVAQRIGARKYMECSSLTGDGVDDVFEAATRAALTVRDSENDKSSTKCCIIS

By UniProt entry, the sequences of proteins in these tests, tags left out. Where a name states a change or a piece, a line headed by the entry shows the natural chain unless it says otherwise.
UniProt O42998: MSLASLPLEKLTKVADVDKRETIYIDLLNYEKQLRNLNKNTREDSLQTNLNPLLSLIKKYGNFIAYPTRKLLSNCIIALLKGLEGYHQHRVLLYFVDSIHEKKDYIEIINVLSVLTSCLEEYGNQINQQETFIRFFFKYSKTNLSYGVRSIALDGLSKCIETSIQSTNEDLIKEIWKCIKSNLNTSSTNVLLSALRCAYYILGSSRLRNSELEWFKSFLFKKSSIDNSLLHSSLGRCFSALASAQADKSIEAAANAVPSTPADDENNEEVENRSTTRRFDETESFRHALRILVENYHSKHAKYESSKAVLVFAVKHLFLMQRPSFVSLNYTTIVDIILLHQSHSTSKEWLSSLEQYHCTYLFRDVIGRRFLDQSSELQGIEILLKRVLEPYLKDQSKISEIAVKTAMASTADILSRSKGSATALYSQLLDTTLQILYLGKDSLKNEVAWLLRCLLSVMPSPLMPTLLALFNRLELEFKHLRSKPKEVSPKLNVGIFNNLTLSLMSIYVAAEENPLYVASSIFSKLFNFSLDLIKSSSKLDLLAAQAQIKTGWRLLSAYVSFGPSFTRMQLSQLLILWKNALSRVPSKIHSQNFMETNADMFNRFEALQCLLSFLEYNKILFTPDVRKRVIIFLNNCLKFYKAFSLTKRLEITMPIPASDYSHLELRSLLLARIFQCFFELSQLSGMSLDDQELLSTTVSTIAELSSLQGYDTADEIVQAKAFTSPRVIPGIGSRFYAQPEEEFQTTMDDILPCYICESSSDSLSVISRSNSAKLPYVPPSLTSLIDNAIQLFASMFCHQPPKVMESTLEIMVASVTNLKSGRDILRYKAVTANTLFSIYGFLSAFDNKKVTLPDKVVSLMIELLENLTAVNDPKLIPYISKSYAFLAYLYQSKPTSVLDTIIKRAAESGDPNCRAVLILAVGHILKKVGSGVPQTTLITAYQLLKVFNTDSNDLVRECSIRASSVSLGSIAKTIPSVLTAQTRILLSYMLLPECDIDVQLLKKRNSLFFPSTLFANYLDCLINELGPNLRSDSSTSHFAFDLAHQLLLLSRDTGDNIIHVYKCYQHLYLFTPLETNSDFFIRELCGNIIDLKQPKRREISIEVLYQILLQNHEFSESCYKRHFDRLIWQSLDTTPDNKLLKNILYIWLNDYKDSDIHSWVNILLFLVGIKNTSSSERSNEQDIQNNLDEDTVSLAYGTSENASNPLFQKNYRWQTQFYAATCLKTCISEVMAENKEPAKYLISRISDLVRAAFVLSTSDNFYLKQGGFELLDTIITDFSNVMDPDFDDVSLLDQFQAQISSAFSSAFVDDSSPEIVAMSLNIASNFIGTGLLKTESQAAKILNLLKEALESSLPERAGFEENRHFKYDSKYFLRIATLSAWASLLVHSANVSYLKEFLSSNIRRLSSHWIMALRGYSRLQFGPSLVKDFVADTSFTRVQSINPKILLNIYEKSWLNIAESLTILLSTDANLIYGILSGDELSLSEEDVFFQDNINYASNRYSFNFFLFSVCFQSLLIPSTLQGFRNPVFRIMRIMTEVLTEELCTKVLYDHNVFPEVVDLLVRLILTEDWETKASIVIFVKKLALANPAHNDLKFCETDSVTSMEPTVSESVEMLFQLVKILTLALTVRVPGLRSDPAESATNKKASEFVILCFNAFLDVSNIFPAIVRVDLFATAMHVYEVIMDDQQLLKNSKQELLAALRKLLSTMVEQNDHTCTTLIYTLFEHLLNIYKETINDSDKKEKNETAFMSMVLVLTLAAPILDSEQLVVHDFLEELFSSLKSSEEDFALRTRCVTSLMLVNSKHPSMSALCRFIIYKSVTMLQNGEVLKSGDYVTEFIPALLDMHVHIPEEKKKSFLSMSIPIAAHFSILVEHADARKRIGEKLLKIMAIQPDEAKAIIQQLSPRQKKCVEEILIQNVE

Key:
[1] = biological target: GST protein (glutathione-S-transferase alone); assay: pull-down; purified GST fusion protein (or GST) from S. pombe, nmt1 promoter, incubated with lysates of S. pombe cells expressing GFP-fused proteins; precipitated with glutathione beads, washed extensively, SDS-PAGE, immunoblot with anti-GFP or anti-GST antibodies; only the target purified
[2] = biological target: Sip1-i4-GST (Sip1-i4 mutant protein lacking the C-terminal 485 amino acids, fused to GST) (Schizosaccharomyces pombe) (UniProt O42998); assay: as above

| Binder | binding [1] | binding [2] |
| --- | --- | --- |
| B1 | no binding | binds |
| B2 | no binding | binds |
| B3 | no binding | binds |
| B4 | no binding | binds |
| B5 | no binding | binds |
| B6 | no binding | binds |
| B7 | no binding | binds |
| B8 | no binding | binds |
| B9 | – | no binding |

From article PMC3698097
